Laboratory results published in the supplement of paper PMC8728848.
Some of the results follow.

How the values were obtained:
Assay in all cases: glycan array binding signal (z-score within array); higher = stronger binding
Settings in all cases: glycan notation: IUPAC condensed, linker removed
[1] = target: Fuc(a1-2)Gal6S(b1-3)GlcNAc6S
Outline: (§1)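 Negative Z-scores can be read as non-binding. The Z-score is calculated within each array and then averaged across arrays of one protein sequence at different concentrations or buffers and across linkers. Arrays, 3228 in all, were curated from the Consortium for Functional Glycomics database and kept only where the protein sequence was available.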

[2] = target: Fuc(a1-2)Gal6S(b1-4)Glc
Outline: as §1

[3] = target: Fuc(a1-2)Gal6S(b1-4)Glc6S
Outline: as §1

[4] = target: Fuc(a1-2)[Gal(a1-3)]Gal
Outline: as §1

[5] = target: Fuc(a1-2)[Gal(a1-3)]Gal(b1-3)GalNAc
Outline: as §1

[6] = target: Fuc(a1-2)[Gal(a1-3)]Gal(b1-3)GalNAc(b1-3)Gal(a1-4)Gal(b1-4)Glc
Outline: as §1

[7] = target: Fuc(a1-2)[Gal(a1-3)]Gal(b1-3)GlcNAc
Outline: as §1

[8] = target: Fuc(a1-2)[Gal(a1-3)]Gal(b1-3)GlcNAc(b1-2)Man(a1-3)[Fuc(a1-2)[Gal(a1-3)]Gal(b1-3)GlcNAc(b1-2)Man(a1-6)]Man(b1-4)GlcNAc(b1-4)GlcNAc
Outline: as §1

[9] = target: Fuc(a1-2)[Gal(a1-3)]Gal(b1-3)GlcNAc(b1-2)Man(a1-3)[Fuc(a1-2)[Gal(a1-3)]Gal(b1-3)GlcNAc(b1-2)Man(a1-6)]Man(b1-4)GlcNAc(b1-4)[Fuc(a1-6)]GlcNAc
Outline: as §1

[10] = target: Fuc(a1-2)[Gal(a1-3)]Gal(b1-3)GlcNAc(b1-3)GalNAc
Outline: as §1

[11] = target: Fuc(a1-2)[Gal(a1-3)]Gal(b1-3)GlcNAc(b1-6)GalNAc
Outline: as §1

[12] = target: Fuc(a1-2)[Gal(a1-3)]Gal(b1-4)Glc
Outline: as §1

[13] = target: Fuc(a1-2)[Gal(a1-3)]Gal(b1-4)GlcNAc
Outline: as §1

[14] = target: Fuc(a1-2)[Gal(a1-3)]Gal(b1-4)GlcNAc(b1-2)Man
Outline: as §1

[15] = target: Fuc(a1-2)[Gal(a1-3)]Gal(b1-4)GlcNAc(b1-2)Man(a1-3)[Fuc(a1-2)[Gal(a1-3)]Gal(b1-4)GlcNAc(b1-2)Man(a1-6)]Man(b1-4)GlcNAc(b1-4)GlcNAc
Outline: as §1

[16] = target: Fuc(a1-2)[Gal(a1-3)]Gal(b1-4)GlcNAc(b1-2)Man(a1-3)[Fuc(a1-2)[Gal(a1-3)]Gal(b1-4)GlcNAc(b1-2)Man(a1-6)]Man(b1-4)GlcNAc(b1-4)[Fuc(a1-6)]GlcNAc
Outline: as §1

[17] = target: Fuc(a1-2)[Gal(a1-3)]Gal(b1-4)GlcNAc(b1-3)GalNAc
Outline: as §1

[18] = target: Fuc(a1-2)[Gal(a1-3)]Gal(b1-4)GlcNAc(b1-3)[Fuc(a1-2)[Gal(a1-3)]Gal(b1-4)GlcNAc(b1-6)]GalNAc
Outline: as §1

[19] = target: Fuc(a1-2)[Gal(a1-3)]Gal(b1-4)GlcNAc(b1-6)GalNAc
Outline: as §1

[20] = target: Fuc(a1-2)[Gal(a1-3)]Gal(b1-4)[Fuc(a1-3)]Glc
Outline: as §1

[21] = target: Fuc(a1-2)[Gal(a1-3)]Gal(b1-4)[Fuc(a1-3)]GlcNAc
Outline: as §1

[22] = target: Fuc(a1-2)[Gal(a1-3)]Gal(b1-4)[Fuc(a1-3)]GlcNAc(b1-3)GalNAc
Outline: as §1

[23] = target: Fuc(a1-2)[Gal(a1-4)]Gal(b1-4)GlcNAc
Outline: as §1

[24] = target: Fuc(a1-2)[GalNAc(a1-3)]Gal
Outline: as §1

[25] = target: Fuc(a1-2)[GalNAc(a1-3)]Gal(b1-3)GalNAc(a1-3)[Fuc(a1-2)]Gal(b1-4)GlcNAc
Outline: as §1

[26] = target: Fuc(a1-2)[GalNAc(a1-3)]Gal(b1-3)GalNAc(b1-3)Gal(a1-4)Gal(b1-4)Glc
Outline: as §1

[27] = target: Fuc(a1-2)[GalNAc(a1-3)]Gal(b1-3)GlcNAc
Outline: as §1

[28] = target: Fuc(a1-2)[GalNAc(a1-3)]Gal(b1-3)GlcNAc(b1-2)Man(a1-3)[Fuc(a1-2)[GalNAc(a1-3)]Gal(b1-3)GlcNAc(b1-2)Man(a1-6)]Man(b1-4)GlcNAc(b1-4)GlcNAc
Outline: as §1

[29] = target: Fuc(a1-2)[GalNAc(a1-3)]Gal(b1-3)GlcNAc(b1-2)Man(a1-3)[Fuc(a1-2)[GalNAc(a1-3)]Gal(b1-3)GlcNAc(b1-2)Man(a1-6)]Man(b1-4)GlcNAc(b1-4)[Fuc(a1-6)]GlcNAc
Outline: as §1

[30] = target: Fuc(a1-2)[GalNAc(a1-3)]Gal(b1-3)GlcNAc(b1-3)GalNAc
Outline: as §1

[31] = target: Fuc(a1-2)[GalNAc(a1-3)]Gal(b1-3)GlcNAc(b1-6)GalNAc
Outline: as §1

[32] = target: Fuc(a1-2)[GalNAc(a1-3)]Gal(b1-4)Glc
Outline: as §1

[33] = target: Fuc(a1-2)[GalNAc(a1-3)]Gal(b1-4)GlcNAc
Outline: as §1

[34] = target: Fuc(a1-2)[GalNAc(a1-3)]Gal(b1-4)GlcNAc(b1-2)Man
Outline: as §1

[35] = target: Fuc(a1-2)[GalNAc(a1-3)]Gal(b1-4)GlcNAc(b1-2)Man(a1-3)[Fuc(a1-2)[GalNAc(a1-3)]Gal(b1-4)GlcNAc(b1-2)Man(a1-6)]Man(b1-4)GlcNAc(b1-4)GlcNAc
Outline: as §1

[36] = target: Fuc(a1-2)[GalNAc(a1-3)]Gal(b1-4)GlcNAc(b1-2)Man(a1-3)[Fuc(a1-2)[GalNAc(a1-3)]Gal(b1-4)GlcNAc(b1-2)Man(a1-6)]Man(b1-4)GlcNAc(b1-4)[Fuc(a1-6)]GlcNAc
Outline: as §1

[37] = target: Fuc(a1-2)[GalNAc(a1-3)]Gal(b1-4)GlcNAc(b1-3)Gal(b1-4)GlcNAc
Outline: as §1

[38] = target: Fuc(a1-2)[GalNAc(a1-3)]Gal(b1-4)GlcNAc(b1-3)Gal(b1-4)GlcNAc(b1-3)Gal(b1-4)GlcNAc
Outline: as §1

[39] = target: Fuc(a1-2)[GalNAc(a1-3)]Gal(b1-4)GlcNAc(b1-3)GalNAc
Outline: as §1

[40] = target: Fuc(a1-2)[GalNAc(a1-3)]Gal(b1-4)GlcNAc(b1-3)[Fuc(a1-2)[GalNAc(a1-3)]Gal(b1-4)GlcNAc(b1-6)]GalNAc
Outline: as §1

[41] = target: Fuc(a1-2)[GalNAc(a1-3)]Gal(b1-4)GlcNAc(b1-6)GalNAc
Outline: as §1

[42] = target: Fuc(a1-2)[GalNAc(a1-3)]Gal(b1-4)[Fuc(a1-3)]GlcNAc
Outline: as §1

[43] = target: Fuc(a1-2)[GalNAc(a1-3)]Gal(b1-4)[Fuc(a1-3)]GlcNAc(b1-3)GalNAc
Outline: as §1

[44] = target: Fuc(a1-2)[GalNAc(a1-4)]Gal(b1-4)GlcNAc
Outline: as §1

[45] = target: Fuc(a1-2)[GalNAc(b1-3)]Gal
Outline: as §1

B1: LF82 (Escherichia coli) (protein)
chain: ADWGPCRTASGDPFIFVTSFTKNIQNPTDNVTGQTYPDFYQWALGDKYSGVCECPSPNPTEARPTLYKTESTLAAGHNSTYFKITNNLEVSTRVYIANVGNVQVPFINKSNSQPGRECDQPTFGWTTGSKGQLSLYIAKPFVGEQNIPQTIIVSVFGTKKENVYSSVPISQVLLSGKVTVTQGCELAAGTSLDIDFGEYQAHDFKGRTGQPPQNVQKIQKELTFNCTNISDGVHIYLSLEGTPNAAYPSAISLGNADVGAVIEDGKGNILKPNDSNSLLEMNPGSLYEYVKRKVTTTITAYPVSTTGKLPAAGDYSGVATMHVELDGGGGGGGGGGATTDLGAKGTLKFSLKISQGHHHHHH
With B1 the “glycan array binding signal (z-score)” value [1] was -0.122, the “glycan array binding signal (z-score)” value [2] was -2.14 and the “glycan array binding signal (z-score)” value [3] was -0.548. The “glycan array binding signal (z-score)” value [4] was -0.386, the “glycan array binding signal (z-score)” value [5] was -0.228 and the “glycan array binding signal (z-score)” value [6] was -0.93. For the same binder, the “glycan array binding signal (z-score)” value [7] was -0.338, the “glycan array binding signal (z-score)” value [8] was -0.09 and the “glycan array binding signal (z-score)” value [9] was 3.84. The “glycan array binding signal (z-score)” value [10] was -1.86, the “glycan array binding signal (z-score)” value [11] was -0.795 and the “glycan array binding signal (z-score)” value [12] was -0.473. For the same binder, the “glycan array binding signal (z-score)” value [13] was -0.268, the “glycan array binding signal (z-score)” value [14] was -0.821 and the “glycan array binding signal (z-score)” value [15] was 0.087. For the same binder, the “glycan array binding signal (z-score)” value [16] was -0.505, the “glycan array binding signal (z-score)” value [17] was -0.393 and the “glycan array binding signal (z-score)” value [18] was -0.196. For the same binder, the “glycan array binding signal (z-score)” value [19] was 0.16, the “glycan array binding signal (z-score)” value [20] was -0.693 and the “glycan array binding signal (z-score)” value [21] was 0.185. The “glycan array binding signal (z-score)” value [22] was -0.354, the “glycan array binding signal (z-score)” value [23] was -0.825 and the “glycan array binding signal (z-score)” value [24] was -0.238. For the same binder, the “glycan array binding signal (z-score)” value [25] was -0.082, the “glycan array binding signal (z-score)” value [26] was -1.08 and the “glycan array binding signal (z-score)” value [27] was 0.476. The “glycan array binding signal (z-score)” value [28] was 0.811, the “glycan array binding signal (z-score)” value [29] was -0.111 and the “glycan array binding signal (z-score)” value [30] was 1.38. The “glycan array binding signal (z-score)” value [31] was 1.19, the “glycan array binding signal (z-score)” value [32] was -0.933 and the “glycan array binding signal (z-score)” value [33] was 0.474. The “glycan array binding signal (z-score)” value [34] was -0.752, the “glycan array binding signal (z-score)” value [35] was 0.896 and the “glycan array binding signal (z-score)” value [36] was -0.754. For the same binder, the “glycan array binding signal (z-score)” value [37] was -0.385, the “glycan array binding signal (z-score)” value [38] was 0.353 and the “glycan array binding signal (z-score)” value [39] was -0.191. The “glycan array binding signal (z-score)” value [40] was -0.711, the “glycan array binding signal (z-score)” value [41] was -0.035 and the “glycan array binding signal (z-score)” value [42] was 0.082. For the same binder, the “glycan array binding signal (z-score)” value [43] was -1.63, the “glycan array binding signal (z-score)” value [44] was -0.996 and the “glycan array binding signal (z-score)” value [45] was -0.554.
